This note sets out measurements from US20100092464A1.

Chains of the proteins cited; added tags and fusions are not shown. Lines headed by an entry give the natural chain unless they say otherwise; changes in a name come on top.
UniProt P09603: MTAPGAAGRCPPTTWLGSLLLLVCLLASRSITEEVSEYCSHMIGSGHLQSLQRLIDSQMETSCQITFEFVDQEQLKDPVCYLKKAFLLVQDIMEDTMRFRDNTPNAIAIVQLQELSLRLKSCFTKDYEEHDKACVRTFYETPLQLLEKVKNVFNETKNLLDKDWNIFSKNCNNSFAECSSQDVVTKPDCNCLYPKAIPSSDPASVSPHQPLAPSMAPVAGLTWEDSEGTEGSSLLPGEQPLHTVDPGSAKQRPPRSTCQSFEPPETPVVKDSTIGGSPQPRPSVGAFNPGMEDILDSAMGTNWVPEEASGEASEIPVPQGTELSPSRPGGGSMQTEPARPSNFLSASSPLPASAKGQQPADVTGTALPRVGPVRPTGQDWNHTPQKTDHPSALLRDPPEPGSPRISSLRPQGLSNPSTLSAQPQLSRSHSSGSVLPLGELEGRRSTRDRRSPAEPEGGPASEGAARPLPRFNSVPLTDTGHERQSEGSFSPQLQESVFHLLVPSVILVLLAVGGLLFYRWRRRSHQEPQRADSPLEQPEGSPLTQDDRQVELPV

The target of assay [1] is human macrophage colony stimulating factor (M-CSF) (human) (UniProt P09603). The assay is described as follows: SPR (Biacore): M-CSF amine-coupled to CM5 chip, antibody flowed over.
Assay [2] has the same target. The assay is described as follows: hybridoma screening by ELISA on human M-CSF. In general terms: In an ELISA, binding on a coated surface is turned into a signal by an enzyme label.

Results are given in words; binding and its absence hold for the method and conditions named. Some results given as binding are weak or reduced against the parent protein; the word gives no strength.

B1: Human Engineered RX1 antibody heRX1-1.G1 (antibody, V domains shown)
VH: DVQLQESGPGLVKPSQTLSLTCTVTDYSITSDYAWNWIRQFPGKKLEWMGYISYSGSTSYNPSLKSRITISRDTSKNQFSLQLNSVTAADTATYYCASFDYAHAMDYWGQGTTVTVSS
VL: EIVLTQSPGTLSVSPGERVTFSCRASQSIGTSIHWYQQKTGQSPRLLIKYASERISGIPDRFSGSGSGTDFTLTISRVESEDFADYYCQQINSWPTTFGQGTKLEIKR
In the case of B1, in assay [1], the binding entry is recorded as “binds”.

B2: Human Engineered RX1 antibody heRX1-1.G4 (antibody, V domains shown)
VH: B1 VH
VL: B1 VL
Take B2: the binding result in assay [1] was “binds”.

B3: M-CSF-specific murine monoclonal antibody MC1 (antibody, mouse IgG2a, kappa, V domains shown)
VH: EVKLVESGGGLVQPGGSLKLSCATSGFTFSDYYMYWVRQTPEKRLEWVAYISNGGGSTYYPDTVKGRFTISRDNAKNTLYLQMSRLKSEDTAMYYCARQGSYGYPFAYWGQGTLVTVSA
VL: AIQMTQTTSSLSASLGDRVTISCSASQGISNYLNWYQQKPDGTVKLLIYYTSSLHSGVPSRFSGSGSGTDYSLTISNLEPEDIATYYCQQYSKLPWTFGGGTKLEIKR
With B3, the binding entry in assay [2] is on record as “binds”.
